Test results published in US20250121078A1 (priority 2023, published 2025).
[ ]: non-standard residue; d: D form. dPhe(4-Cl) = N[C@H](Cc1ccc(Cl)cc1)C(=O)O; d2Nal = N[C@H](Cc1ccc2ccccc2c1)C(=O)O; dCit = NC(=O)NCCC[C@@H](N)C(=O)O; d3Pal = N[C@H](Cc1cccnc1)C(=O)O

Experiment: general procedure: peptide synthesis; Rink Resin
Conditions: whole synthesis

Substance: Ac-[d2Nal][dPhe(4-Cl)][d3Pal]S[dK][dCit]LRP[dA]-NH2 (SMILES CC(=O)N[C@H](Cc1ccc2ccccc2c1)C(=O)N[C@H](Cc1ccc(Cl)cc1)C(=O)N[C@H](Cc1cccnc1)C(=O)N[C@@H](CO)C(=O)N[C@H](CCCCN)C(=O)N[C@H](CCCNC(N)=O)C(=O)N[C@@H](CC(C)C)C(=O)N[C@@H](CCCNC(=N)N)C(=O)N1CCC[C@H]1C(=O)N[C@H](C)C(N)=O)
- final HPLC purity: 98%
